Consider one substance from article PMC4333404, “Bcl2 inhibits recruitment of Mre11 complex to DNA double-strand breaks in response to high-linear energy transfer radiation”.

By UniProt entry, the sequences of proteins in these tests, tags left out.
UniProt P10415: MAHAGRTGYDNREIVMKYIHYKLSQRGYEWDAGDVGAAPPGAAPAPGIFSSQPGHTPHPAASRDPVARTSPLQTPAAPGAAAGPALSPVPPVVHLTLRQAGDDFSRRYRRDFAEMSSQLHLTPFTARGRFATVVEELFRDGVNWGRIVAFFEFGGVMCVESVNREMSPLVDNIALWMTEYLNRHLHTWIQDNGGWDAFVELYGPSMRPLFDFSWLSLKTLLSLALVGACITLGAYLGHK
UniProt P12956: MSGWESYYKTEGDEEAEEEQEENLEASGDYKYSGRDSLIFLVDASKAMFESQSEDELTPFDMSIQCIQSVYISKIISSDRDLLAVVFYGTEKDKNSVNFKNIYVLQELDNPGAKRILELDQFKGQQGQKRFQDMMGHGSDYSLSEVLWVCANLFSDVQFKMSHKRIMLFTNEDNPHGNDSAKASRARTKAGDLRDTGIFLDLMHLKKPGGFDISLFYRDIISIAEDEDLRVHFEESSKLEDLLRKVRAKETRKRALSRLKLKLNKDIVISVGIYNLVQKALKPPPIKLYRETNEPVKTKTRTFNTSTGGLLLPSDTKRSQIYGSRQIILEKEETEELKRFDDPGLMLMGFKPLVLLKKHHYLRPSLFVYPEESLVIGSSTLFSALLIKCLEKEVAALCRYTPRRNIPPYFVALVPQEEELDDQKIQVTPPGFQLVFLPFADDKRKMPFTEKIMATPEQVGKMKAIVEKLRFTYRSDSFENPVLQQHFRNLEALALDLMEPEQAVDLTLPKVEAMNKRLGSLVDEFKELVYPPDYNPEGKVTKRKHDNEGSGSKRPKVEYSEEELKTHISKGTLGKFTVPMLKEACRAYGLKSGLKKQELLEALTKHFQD

The assay addresses Bcl2, wild type, overexpressed in BEAS-2B cells (UniProt P10415). Description: co-IP; BEAS-2B cells overexpressing Bcl2, treated with increasing doses (0.1-1 Gy) of 56Fe, 28Si or X-ray; 1% CHAPS lysis buffer; agarose-conjugated Bcl2 antibody; western blot of Mre11 and Ku70.

Results are given in words; binding and its absence hold for the method and conditions named. In cells and extracts the contact can be indirect. Some entries that bind do so weakly or less than the wild type.

Regarding “Ku70, endogenous in BEAS-2B cells (from UniProt P12956 1-609)”, the binding result is “binds”.
